{"source": "PubChem BioAssay AID2685", "about": "(National Center for Advancing Translational Sciences (NCATS), 2010)", "experiment": "qHTS Assay for Lipid Storage Modulators in Drosophila S3 Cells;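 for cell number change: cells counted by Cell Tracker Red CMTPX staining in the red channel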", "conditions": "BODIPY lipid droplet fluorescence, 18-24 h; for cell number change: measured here: cell count max response, cells fed with added oleic acid", "method_in_brief": "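Laser-scanning cytometry quantifies lipid droplet accumulation (500–530 nm total intensity; droplet/cell object ratio) in oleic acid-fed (400 uM added) Drosophila S3 cells treated with a concentration series. 20 uM Triacsin C defined 100% inhibition.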", "key": {"[1]": {"conditions": "measured here: cell number channel AC50, cells fed with added oleic acid"}, "[2]": {"conditions": "measured here: lipid fluorescence (Fed channel) AC50, cells fed with added oleic acid"}}, "note": "This is one part of the list. These are further read-outs of the screen, such as a control signal, another cell line or another target. No call is given for them. Compounds called inactive in the main read-out are mostly missing here. Words in brackets tell the shape of the fitted curve; partial curves, single points and poor fits give uncertain potencies."}
{"smiles": "CC(=O)Nc1c(C(=O)NCc2ccccc2)nnn1Cc1ccccc1", "values": [{"measurement": "cell number change", "value": 32.7, "unit": "%"}, {"measurement": "AC50", "setting": "[1]", "value": "9.2 µM [rising, partial curve]"}]}
{"smiles": "CC1CCCC(NC(=O)COC(=O)/C=C/c2ccc3c(c2)OCO3)C1C", "note": "(centres undefined)", "values": [{"measurement": "cell number change", "value": 0.104, "unit": "%"}, {"measurement": "AC50", "setting": "[2]", "value": "0.731 µM [rising, partial curve]"}]}
{"smiles": "CSc1nc2nccc(-c3ccc(Cl)cc3)n2n1", "values": [{"measurement": "cell number change", "value": -39, "unit": "%"}, {"measurement": "AC50", "setting": "[1]", "value": "23.1 µM [falling, single point]"}, {"measurement": "AC50", "setting": "[2]", "value": "29.1 µM [falling, single point]"}]}
{"smiles": "COCc1cc(Sc2ccc(Cl)cc2)nc(-c2ccccc2)n1", "values": [{"measurement": "cell number change", "value": 9.94, "unit": "%"}, {"measurement": "AC50", "setting": "[2]", "value": "6.51 µM [rising, single point]"}]}
{"smiles": "Cc1ccc2oc3c(c(=O)c2c1)C(c1cccc(Cl)c1)N(CCCN1CCOCC1)C3=O", "note": "(centres undefined)", "values": [{"measurement": "AC50", "setting": "[1]", "value": "2.91 µM [rising, single point]"}, {"measurement": "AC50", "setting": "[2]", "value": "3.26 µM [rising, single point]"}]}
{"smiles": "CCc1ccc(N(C(=O)c2snc(C(N)=O)c2N)C(C(=O)NCC2CCCO2)c2cccs2)cc1", "note": "(centres undefined)", "values": [{"measurement": "cell number change", "value": -32.6, "unit": "%"}, {"measurement": "AC50", "setting": "[1]", "value": "29.1 µM [falling, single point]"}, {"measurement": "AC50", "setting": "[2]", "value": "18.4 µM [rising, single point]"}]}
{"smiles": "CC(=O)c1cc2c(cc1NC(=O)c1cc(C)nn1-c1ccccc1)OCO2", "values": [{"measurement": "cell number change", "value": 21.6, "unit": "%"}, {"measurement": "AC50", "setting": "[2]", "value": "0.291 µM [rising, full curve]"}]}
{"smiles": "Cc1onc(-c2ccccc2)c1C(=O)Oc1cccnc1", "values": [{"measurement": "AC50", "setting": "[1]", "value": "0.461 µM [rising, partial curve, poor fit]"}, {"measurement": "AC50", "setting": "[2]", "value": "0.58 µM [rising, partial curve, poor fit]"}]}
{"smiles": "Oc1cccc(C2c3[nH]c4ccccc4c3CCN2Cc2ccc3c(c2)CCO3)c1", "note": "(centres undefined)", "values": [{"measurement": "cell number change", "value": -34.7, "unit": "%"}, {"measurement": "AC50", "setting": "[1]", "value": "16.4 µM [falling, single point]"}, {"measurement": "AC50", "setting": "[2]", "value": "29.1 µM [falling, single point]"}]}
{"smiles": "COc1cccc2sc(Nc3nnc(-c4cccs4)o3)nc12", "values": [{"measurement": "cell number change", "value": -1.6, "unit": "%"}, {"measurement": "AC50", "setting": "[2]", "value": "0.082 µM [falling, full curve, poor fit]"}]}
{"smiles": "CCc1nc2ccccc2n1Cc1cc(=O)n2cc(C)ccc2n1", "values": [{"measurement": "cell number change", "value": 2.35, "unit": "%"}]}
{"smiles": "Cc1nc(SCCC(=O)O)c2ccccc2n1", "values": [{"measurement": "AC50", "setting": "[2]", "value": "2.06 µM [falling, partial curve]"}]}
{"smiles": "Cc1cc(/C=N/n2cnnc2)c(C)n1-c1ccc(OCc2ccc(Cl)cc2Cl)cc1", "values": [{"measurement": "cell number change", "value": -86.5, "unit": "%"}, {"measurement": "AC50", "setting": "[1]", "value": "25.9 µM [falling, single point]"}, {"measurement": "AC50", "setting": "[2]", "value": "20.6 µM [falling, single point]"}]}
{"smiles": "COc1ccc(NS(=O)(=O)c2cccs2)cn1", "values": [{"measurement": "cell number change", "value": -3, "unit": "%"}, {"measurement": "AC50", "setting": "[2]", "value": "29.1 µM [falling, single point]"}]}
{"smiles": "O=C(CSc1nc(C(F)(F)F)cc(=O)[nH]1)Nc1cccc2ccccc12", "values": [{"measurement": "cell number change", "value": -0.161, "unit": "%"}, {"measurement": "AC50", "setting": "[1]", "value": "1.03 µM [falling, partial curve, poor fit]"}, {"measurement": "AC50", "setting": "[2]", "value": "0.731 µM [falling, full curve]"}]}
{"smiles": "N#Cc1c(NC(=O)CSc2ncn(-c3ccccc3)n2)sc2c1CCCC2", "values": [{"measurement": "cell number change", "value": 49.3, "unit": "%"}, {"measurement": "AC50", "setting": "[1]", "value": "4.11 µM [rising, partial curve]"}, {"measurement": "AC50", "setting": "[2]", "value": "11.6 µM [rising, partial curve]"}]}
{"smiles": "NC(=O)OCC(COC(N)=O)c1ccccc1", "values": [{"measurement": "cell number change", "value": -2.43, "unit": "%"}, {"measurement": "AC50", "setting": "[2]", "value": "29.1 µM [rising, single point]"}]}
{"smiles": "Nc1cc(=O)[nH]c(SCC(=O)Nc2ccc(S(=O)(=O)N3CCCCC3)cc2)n1", "values": [{"measurement": "cell number change", "value": 9.54, "unit": "%"}, {"measurement": "AC50", "setting": "[2]", "value": "0.184 µM [falling, full curve, poor fit]"}]}
{"smiles": "O=C(COc1ccc(-n2cnnn2)cc1)NCCc1ccc(F)cc1", "values": [{"measurement": "AC50", "setting": "[2]", "value": "29.1 µM [rising, single point]"}]}
{"smiles": "CCCC(=O)N1CCN(c2nc3ccc(CC)cc3s2)CC1", "values": [{"measurement": "cell number change", "value": -8.5, "unit": "%"}]}
{"smiles": "CCNC(=S)Nc1ccc(Cc2nc3ccccc3[nH]2)cc1", "values": [{"measurement": "cell number change", "value": -33.3, "unit": "%"}, {"measurement": "AC50", "setting": "[2]", "value": "5.17 µM [falling, full curve, poor fit]"}]}
{"smiles": "c1ccc(-c2csc(NC3CCCCC3)n2)cc1", "values": [{"measurement": "cell number change", "value": 19, "unit": "%"}, {"measurement": "AC50", "setting": "[2]", "value": "29.1 µM [rising, single point]"}]}
{"smiles": "O=C(Cn1cnc2ccccc2c1=O)Nc1ccccc1N1CCOCC1", "values": [{"measurement": "AC50", "setting": "[1]", "value": "0.231 µM [rising, full curve, poor fit]"}, {"measurement": "AC50", "setting": "[2]", "value": "0.146 µM [rising, full curve, poor fit]"}]}
{"smiles": "O=C(O)C1CC(=O)N(c2ccc(OCc3ccc(Cl)cc3Cl)cc2)C1", "note": "(centres undefined)", "values": [{"measurement": "cell number change", "value": 25.7, "unit": "%"}, {"measurement": "AC50", "setting": "[2]", "value": "1.84 µM [falling, partial curve]"}]}
{"smiles": "CCOc1ccc(/C=N/NC(=O)c2nnn(-c3nonc3N)c2-c2ccc(OCC)cc2)cc1", "values": [{"measurement": "AC50", "setting": "[1]", "value": "0.00517 µM [falling, full curve, poor fit]"}, {"measurement": "AC50", "setting": "[2]", "value": "3.66 µM [rising, single point]"}]}
{"smiles": "CCOC(=O)Cc1csc(NC(=S)NC(=O)c2cc(OC)cc(OC)c2)n1", "values": [{"measurement": "cell number change", "value": -0.2, "unit": "%"}]}
{"smiles": "COC(=O)c1ccc(NC(=S)N2CCN(C(=O)c3ccco3)CC2)cc1", "values": [{"measurement": "cell number change", "value": 13.6, "unit": "%"}]}
{"smiles": "O=C(Cc1ccc(-c2ccccc2)cc1)NCCN1CCOCC1", "values": [{"measurement": "cell number change", "value": 28.1, "unit": "%"}, {"measurement": "AC50", "setting": "[2]", "value": "5.17 µM [rising, partial curve]"}]}
{"smiles": "COc1ccc(CNC(=O)CCCn2nc(C)n3ccnc3c2=O)cc1", "values": [{"measurement": "cell number change", "value": 2.88, "unit": "%"}, {"measurement": "AC50", "setting": "[2]", "value": "1.3 µM [rising, full curve, poor fit]"}]}
{"smiles": "COc1ccc(C(CC(=O)O)N2C(=O)CCC2=O)cc1", "note": "(centres undefined)", "values": [{"measurement": "cell number change", "value": 6.02, "unit": "%"}, {"measurement": "AC50", "setting": "[2]", "value": "29.1 µM [rising, single point]"}]}
{"smiles": "CC1C=CCC2C(=O)N(c3cccc(C(=O)N4CCN(c5ccc(F)cc5)CC4)c3)C(=O)C12", "note": "(centres undefined)", "values": [{"measurement": "cell number change", "value": 10.4, "unit": "%"}, {"measurement": "AC50", "setting": "[2]", "value": "29.1 µM [rising, single point]"}]}
{"smiles": "O=C(O)c1ccc(COc2ccc3c(c2)CCC3)cc1", "values": [{"measurement": "cell number change", "value": -8.86, "unit": "%"}, {"measurement": "AC50", "setting": "[2]", "value": "0.651 µM [falling, full curve, poor fit]"}]}
{"smiles": "COc1cc(/C=C2/SC(=Nc3ccc(O)cc3)NC2=O)ccc1O", "values": [{"measurement": "cell number change", "value": -16.4, "unit": "%"}, {"measurement": "AC50", "setting": "[1]", "value": "6.51 µM [falling, single point]"}, {"measurement": "AC50", "setting": "[2]", "value": "3.66 µM [falling, full curve, poor fit]"}]}
{"smiles": "Cc1ccc(S(=O)(=O)/N=C2/NC(=O)/C(=C/c3cc([N+](=O)[O-])ccc3O)S2)cc1", "values": [{"measurement": "cell number change", "value": -82.1, "unit": "%"}, {"measurement": "AC50", "setting": "[1]", "value": "29.1 µM [falling, partial curve, poor fit]"}]}
{"smiles": "Cc1ccc(-c2cc(C(F)(F)F)n3nc(C(=O)Nc4c(C)n(C)n(-c5ccccc5)c4=O)cc3n2)cc1", "values": [{"measurement": "cell number change", "value": 62.6, "unit": "%"}, {"measurement": "AC50", "setting": "[1]", "value": "29.1 µM [rising, single point]"}, {"measurement": "AC50", "setting": "[2]", "value": "0.517 µM [falling, single point]"}]}
{"smiles": "COc1cccc(NC(=O)CCC(=O)N2CC(C)Oc3ccc(C)cc32)c1", "note": "(centres undefined)", "values": [{"measurement": "cell number change", "value": -8.65, "unit": "%"}, {"measurement": "AC50", "setting": "[2]", "value": "29.1 µM [falling, single point]"}]}
